These are yes or no findings as the source states them, for the method shown. Binding seen in cells or lysates may run through a third protein. Binding calls can cover weak binding; strength is not graded here. For some of these results: Where a sequence is shown, tags or fusion partners need not be part of it.
What was measured:
HA-chMDA5-N (chicken) [1] = target: T1, HA-chMDA5-N (chicken) (UniProt D9N195); assay: co-IP; Flag-hnRNPH2 and HA-chMDA5-N; cell lysates pretreated with RNase A/T1 (Supplementary Figure S3)
T1 sequence: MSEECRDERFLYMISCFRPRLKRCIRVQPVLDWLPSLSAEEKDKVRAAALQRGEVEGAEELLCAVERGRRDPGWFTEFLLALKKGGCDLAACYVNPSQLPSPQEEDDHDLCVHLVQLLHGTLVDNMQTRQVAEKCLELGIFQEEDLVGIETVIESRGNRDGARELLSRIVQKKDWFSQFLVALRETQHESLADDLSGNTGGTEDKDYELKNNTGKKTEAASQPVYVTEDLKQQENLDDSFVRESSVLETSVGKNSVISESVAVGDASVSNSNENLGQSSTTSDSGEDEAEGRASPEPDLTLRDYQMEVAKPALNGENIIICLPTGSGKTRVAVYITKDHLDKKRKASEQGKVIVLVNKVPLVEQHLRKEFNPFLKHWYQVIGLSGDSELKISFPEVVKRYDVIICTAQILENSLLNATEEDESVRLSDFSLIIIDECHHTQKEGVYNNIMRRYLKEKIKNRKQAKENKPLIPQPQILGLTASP

HA-chMDA5-N (chicken) [2] = target: T1, HA-chMDA5-N (chicken); assay: co-IP; tagged constructs co-transfected into DF1 cells, RIPA lysate 24 h later, anti-Flag or anti-HA magnetic beads at 4°C, immunoblot
[3] = target: T2, chicken MDA5 (chMDA5) (chicken (endogenous in DF1)) (UniProt D9N195); assay: co-IP; DF1 cell lysates immunoprecipitated with rabbit pAb against chMDA5, western blotting with antibodies against the endogenous proteins (Supplementary Figure S2)
T2 sequence: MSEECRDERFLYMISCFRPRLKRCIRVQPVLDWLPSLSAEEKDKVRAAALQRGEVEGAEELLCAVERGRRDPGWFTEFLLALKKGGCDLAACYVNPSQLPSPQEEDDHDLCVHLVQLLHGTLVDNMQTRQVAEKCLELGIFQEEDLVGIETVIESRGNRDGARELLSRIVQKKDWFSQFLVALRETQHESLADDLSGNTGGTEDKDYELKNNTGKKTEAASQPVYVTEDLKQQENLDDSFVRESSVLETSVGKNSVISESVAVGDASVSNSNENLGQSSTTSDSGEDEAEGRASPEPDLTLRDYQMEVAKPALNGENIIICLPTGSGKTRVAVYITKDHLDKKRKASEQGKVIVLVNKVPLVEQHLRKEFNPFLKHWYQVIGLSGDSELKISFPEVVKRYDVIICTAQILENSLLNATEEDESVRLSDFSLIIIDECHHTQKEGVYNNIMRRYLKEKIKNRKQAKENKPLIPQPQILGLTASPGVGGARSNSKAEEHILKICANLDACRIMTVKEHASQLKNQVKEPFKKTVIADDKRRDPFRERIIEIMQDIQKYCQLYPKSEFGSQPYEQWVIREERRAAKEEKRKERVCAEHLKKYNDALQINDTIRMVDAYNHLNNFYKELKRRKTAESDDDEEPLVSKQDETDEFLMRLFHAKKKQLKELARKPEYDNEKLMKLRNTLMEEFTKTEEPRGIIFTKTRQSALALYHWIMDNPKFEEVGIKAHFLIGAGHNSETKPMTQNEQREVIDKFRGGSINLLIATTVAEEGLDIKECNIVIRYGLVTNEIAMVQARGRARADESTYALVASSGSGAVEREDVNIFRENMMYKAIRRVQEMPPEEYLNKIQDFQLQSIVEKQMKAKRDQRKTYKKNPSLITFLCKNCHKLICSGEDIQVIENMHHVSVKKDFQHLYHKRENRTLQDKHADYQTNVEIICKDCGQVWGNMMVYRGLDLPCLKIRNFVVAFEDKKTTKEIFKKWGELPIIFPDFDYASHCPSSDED

Row | Substance | binding (HA-chMDA5-N (chicken) [1]) | binding (HA-chMDA5-N (chicken) [2]) | binding [3]
1 | Flag-tagged chicken DDX5 |  | binds | 
2 | chicken DDX5 |  |  | binds
3 | chicken IFIT5 |  |  | binds
4 | chicken hnRNPH2 |  |  | binds

Results, then the substance that gave them:

Row | binding (HA-chMDA5-N (chicken) [1]) | binding (HA-chMDA5-N (chicken) [2]) | binding [3] | Substance
5 | binds | binds |  | Flag-hnRNPH2 (chicken)
6 |  | binds |  | Flag-tagged chicken IFIT5

Reference: article PMC7573076
